# Data as given in patent US20090156657A1, “ANTI-INFLAMMATORY COMPOSITION” (Ajinomoto Co., Inc., priority 2006, published 2009).
# Assay: IBD model mouse: body weight, ingested feed, water drunk
# Format: in vivo
# Conditions: IBD model mice, mean ± SEM
# Source text: 4 days before IL-10 deficient cell transplantation, total 40 SCID mice (7-week-old, were divided into the following 4 groups 1) to 4) (10 mice in each group) and acclimation to a control diet was simultaneously started. Immediately after cell transfer, the feed was changed to the test diet shown in Table 4, and free ingestion was allowed for 3 weeks. The safflower seed extract powder was the same as that in Example 8, and contained 50 wt % of γ-cyclodextrin. N-Feruloylserotonin (FS) was synthesized according to the method of Experimental Example 1. During the test diet ingestion period, the body weight, the amount of ingested feed and the amount of water drunk were measured 3 times a week to monitor the onset of the disease.
# 1) Normal group (normal SCID mice×control diet) 2) Control group (IL-10 deficient cell-transplanted SCID mice×control diet) 3) SSE group (IL-10 deficient cell-transplanted SCID mice×SSE diet*) 4) FS group (IL-10 deficient cell-transplanted SCID mice×FS diet**) *containing FS and p-coumaroyl serotonin (CS) at 0.10 and 0.13 wt %, respectively (based on aglycone) (total serotonin derivative content=[…]) **containing 0.4 wt % of FS aglycone
smiles,measurement,value
"COc1cc(/C=C/C(=O)NCCc2c[nH]c3ccc(O)cc23)ccc1O [FS, N-feruloyl serotonin]",average amount of ingested feed during test period,3.2 ± 0.1 g/day/mouse
same,average amount of water drunk during test period,2.2 ± 0.2 g/day/mouse
